Measured values as given in paper PMC11374673, “Discovery of isoquinoline sulfonamides as allosteric gyrase inhibitors with activity against fluoroquinolone-resistant bacteria” (Nature Chemistry, 2024).
“And” between values parts separate entries of the source, which are not always exact repeats. Identical values can stand only once. This continues a long series; more values of the same kind are listed elsewhere.

System: E. coli W3110
Assay: Checkerboard assay with PMBN;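 as to checkerboard plate reading, replicate wells: OD600 read after 20 h incubation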
Details: for Checkerboard well reading (growth): single wells (triplicate)

## O=S(=O)(NC[C@@H]1CC[C@H](c2ccc(-c3cccnc3)cc2)N1)c1cccc2cnccc12 [LEI-800]
LEI-800 0.195312 µM + PMBN 0 µM
  checkerboard plate reading, replicate wells: 0.535 and 0.5203 and 0.5192
LEI-800 0.195312 µM + PMBN 0.5 µM
  checkerboard plate reading, replicate wells: 0.5011 and 0.522 and 0.5263
LEI-800 0.195312 µM + PMBN 1 µM
  checkerboard plate reading, replicate wells: 0.4979 and 0.442 and 0.4655
LEI-800 0.195312 µM + PMBN 2 µM
  checkerboard plate reading, replicate wells: 0.3541 and 0.3011 and 0.3007
LEI-800 0.195312 µM + PMBN 4 µM
  checkerboard plate reading, replicate wells: 0.2087 and 0.215 and 0.2092
LEI-800 0.195312 µM + PMBN 8 µM
  checkerboard plate reading, replicate wells: 0.1958 and 0.1923 and 0.188
LEI-800 0.195312 µM + PMBN 16 µM
  checkerboard plate reading, replicate wells: 0.1997 and 0.227 and 0.2301
LEI-800 0.195312 µM + PMBN 32 µM
  checkerboard plate reading, replicate wells: 0.2097 and 0.1963 and 0.1928
LEI-800 0.390625 µM + PMBN 0 µM
  checkerboard plate reading, replicate wells: 0.4906 and 0.4781 and 0.4958
LEI-800 0.390625 µM + PMBN 0.5 µM
  checkerboard plate reading, replicate wells: 0.4403 and 0.4459 and 0.4522
LEI-800 0.390625 µM + PMBN 1 µM
  checkerboard plate reading, replicate wells: 0.3216 and 0.2987 and 0.3462
LEI-800 0.390625 µM + PMBN 2 µM
  checkerboard plate reading, replicate wells: 0.1657 and 0.243 and 0.1494
LEI-800 0.390625 µM + PMBN 4 µM
  checkerboard plate reading, replicate wells: 0.1402 and 0.1389 and 0.1296
LEI-800 0.390625 µM + PMBN 8 µM
  checkerboard plate reading, replicate wells: 0.1397 and 0.1401 and 0.1413
LEI-800 0.390625 µM + PMBN 16 µM
  checkerboard plate reading, replicate wells: 0.1452 and 0.1512 and 0.1524
LEI-800 0.390625 µM + PMBN 32 µM
  checkerboard plate reading, replicate wells: 0.1585 and 0.1496 and 0.1456
LEI-800 0.78125 µM + PMBN 0 µM
  checkerboard plate reading, replicate wells: 0.4149 and 0.4088 and 0.4335
LEI-800 0.78125 µM + PMBN 0.5 µM
  checkerboard plate reading, replicate wells: 0.135 and 0.1359 and 0.1369
LEI-800 0.78125 µM + PMBN 1 µM
  checkerboard plate reading, replicate wells: 0.1543 and 0.138 and 0.1466
LEI-800 0.78125 µM + PMBN 2 µM
  checkerboard plate reading, replicate wells: 0.1536 and 0.147 and 0.1407
LEI-800 0.78125 µM + PMBN 4 µM
  checkerboard plate reading, replicate wells: 0.1464 and 0.1357 and 0.1351
LEI-800 0.78125 µM + PMBN 8 µM
  checkerboard plate reading, replicate wells: 0.1367 and 0.1386 and 0.1393
LEI-800 0.78125 µM + PMBN 16 µM
  checkerboard plate reading, replicate wells: 0.1384 and 0.1474 and 0.1551
LEI-800 0.78125 µM + PMBN 32 µM
  checkerboard plate reading, replicate wells: 0.1521 and 0.1446 and 0.1389
LEI-800 1.5625 µM + PMBN 0 µM
  checkerboard plate reading, replicate wells: 0.3398 and 0.3215 and 0.3217
LEI-800 1.5625 µM + PMBN 0.5 µM
  checkerboard plate reading, replicate wells: 0.1453 and 0.1484 and 0.1497
LEI-800 1.5625 µM + PMBN 1 µM
  checkerboard plate reading, replicate wells: 0.1501 and 0.1492
LEI-800 1.5625 µM + PMBN 8 µM
  checkerboard plate reading, replicate wells: 0.1488 and 0.1504 and 0.1495
LEI-800 1.5625 µM + PMBN 16 µM
  checkerboard plate reading, replicate wells: 0.1527 and 0.1512 and 0.1597
LEI-800 1.5625 µM + PMBN 32 µM
  checkerboard plate reading, replicate wells: 0.1409 and 0.1426 and 0.1439

## O=S(=O)(NC[C@H]1CC[C@@H](c2ccc(-c3ccc(F)nc3)cc2)N1)c1cccc2cnccc12 [LEI-801]
LEI-801 3.125 µM + PMBN 0 µM
  Checkerboard well reading (growth): 0.8382 and 0.7974 and 0.732
LEI-801 3.125 µM + PMBN 0.5 µM
  Checkerboard well reading (growth): 0.6863 and 0.6929 and 0.7137
LEI-801 3.125 µM + PMBN 1 µM
  Checkerboard well reading (growth): 0.6816 and 0.7281 and 0.6928
LEI-801 3.125 µM + PMBN 2 µM
  Checkerboard well reading (growth): 0.5743 and 0.5496 and 0.5936
LEI-801 3.125 µM + PMBN 4 µM
  Checkerboard well reading (growth): 0.538 and 0.5055 and 0.4178
LEI-801 3.125 µM + PMBN 8 µM
  Checkerboard well reading (growth): 0.2861 and 0.2251 and 0.3302
LEI-801 3.125 µM + PMBN 16 µM
  Checkerboard well reading (growth): 0.2551 and 0.2565 and 0.2074
LEI-801 3.125 µM + PMBN 32 µM
  Checkerboard well reading (growth): 0.2729 and 0.1999 and 0.1998
LEI-801 6.25 µM + PMBN 0 µM
  Checkerboard well reading (growth): 0.8581 and 0.7322 and 0.7314
LEI-801 6.25 µM + PMBN 0.5 µM
  Checkerboard well reading (growth): 0.6716 and 0.6113 and 0.629
LEI-801 6.25 µM + PMBN 1 µM
  Checkerboard well reading (growth): 0.4558 and 0.476 and 0.5078
LEI-801 6.25 µM + PMBN 2 µM
  Checkerboard well reading (growth): 0.3155 and 0.3496 and 0.1816
LEI-801 6.25 µM + PMBN 4 µM
  Checkerboard well reading (growth): 0.2201 and 0.1713 and 0.1584
LEI-801 6.25 µM + PMBN 8 µM
  Checkerboard well reading (growth): 0.1406 and 0.1377 and 0.1289
LEI-801 6.25 µM + PMBN 16 µM
  Checkerboard well reading (growth): 0.1351 and 0.1367 and 0.144
LEI-801 6.25 µM + PMBN 32 µM
  Checkerboard well reading (growth): 0.1452 and 0.1514 and 0.1597
LEI-801 12.5 µM + PMBN 0 µM
  Checkerboard well reading (growth): 0.7627 and 0.683 and 0.6448
LEI-801 12.5 µM + PMBN 0.5 µM
  Checkerboard well reading (growth): 0.5446 and 0.5575 and 0.5342
LEI-801 12.5 µM + PMBN 4 µM
  Checkerboard well reading (growth): 0.1492 and 0.1392
LEI-801 12.5 µM + PMBN 8 µM
  Checkerboard well reading (growth): 0.1454 and 0.1336 and 0.1401
LEI-801 12.5 µM + PMBN 16 µM
  Checkerboard well reading (growth): 0.1384 and 0.1425 and 0.1392
LEI-801 12.5 µM + PMBN 32 µM
  Checkerboard well reading (growth): 0.1398 and 0.147 and 0.1549
